Experimental data taken from patent US8324166B2, “Neuroprotection using NAP-like and SAL-like peptide mimetics” (Ramot at Tel-Aviv University, Ltd., priority 2007, dated 2012).
Entries after “also recorded” stand apart in the source; their conditions may differ.

Test system: actin
Experiment: Nuclear actin level in cerebral cortex by immunoblotting
Format: in vivo, mouse
Conditions: NAT treated TAU-Tg vs other groups, listed as NAT

## NATLSIHQ (synthetic NAP-like peptide)
  amount of actin in cell nucleus: no statistical difference; also recorded: no significant change
